Measurements published in patent US11560360B2, “Therapeutic compounds” (ARIZONA BOARD OF REGENTS ON BEHALF OF ARIZONA STATE …, priority 2016, dated 2023).
Some entries share one result that the patent states for a list of compounds.

Legend:
[1] = test system: mitochondrial inner membrane potential in FRDA lymphocytes; test: JC-1 mitochondrial membrane potential (Δψm) assay; type: cell-based, human; settings: 16 h pre-treatment, JC-1, FACS (FIG. 4)
Description: In each analysis, 10000 events were recorded. Depolarization with carbonyl cyanide p-(trifluoromethoxy) phenylhydrazone (FCCP), was used to serve as a positive control.
The ability of 1-5 to maintain mitochondrial membrane potential (ΔΨm) compared to the parent compound MV was studied. ΔΨm was determined using the cationic fluorescent dye 5, 5′, 6, 6′-tetrachloro-1, 1′, 3, 3′-tetraethylbenzimidazolyl carbocyanine iodide (JC-1), which is a lipophilic cation that selectively accumulates in mitochondria due to the negative potential across the inner mitochondrial membrane. The dye exists as a monomer at low concentrations giving a green fluorescence. […] Therefore, mitochondrial depolarization is indicated by a decrease in red/green fluorescence ratio. Carbonyl cyanide 4-(trifluoromethoxy)phenylhydrazone (FCCP), a commonly used uncoupler of oxidative phosphorylation in mitochondria, was used as a negative control to dissipate the chemiosmotic proton gradient, which results in depolarization of mitochondrial membrane potential. FIG. 4 summarizes the results of this study.
JC-1 Mitochondrial Membrane Potential (Δψm) Assay
The ability of the test compounds to depolarize or maintains mitochondrial inner membrane potential (Δψm) was assessed using the JC-1 probe. […] JC-1 is a dual stain, which can identify high membrane potential through J-aggregates (red fluorescence) and low membrane potential through J-monomers (green fluorescence). When the Δψm collapses, the reagent (JC-1) no longer accumulates inside the mitochondria; instead, it is diffuses throughout the cell cytosol in the monomeric form which fluoresces green. The detection of mitochondrial depolarization using JC-1 was accomplished by flow cytometry as described before (Arce et al. (2012) Bioorg. Med. Chem. 20, 5188). Briefly, FRDA lymphocytes cells (5×10^5 cells) were pre-treated with or without the test compounds for 16 h. The cells were incubated at 37° C. in the dark for 20 min with 1 μM JC-1. Cells were collected by centrifugation at 300×g for 3 min and washed with phosphate buffered saline. Cells were resuspended in phosphate buffered saline supplemented with 20 mM glucose and were analyzed immediately by FACS (C6 Accuri, BD Biosciences, San Jose, Calif.), using a 488 nm excitation laser and the FL1-H channel 530±15 nm emission filter and the FL2-H channel 585±15 nm. For each analysis 10,000 events were recorded and analyzed using C6 Accuri software (BD Biosciences). FCCP (carbonyl cyanide p-trifluoromethoxyphenyl hydrazone), a mitochondrial uncouple, was used to produce a negative control.

FRDA lymphocytes = test: Measurement of cellular ATP concentration (firefly luciferase); type: cell-based, human; settings: for cellular ATP levels: glucose free media (25 mM galactose), relative to untreated control (FIG. 6); for concentration up to which ATP levels are maintained: glucose free media with galactose (FIG. 6)
Description: Results are expressed as percentage of total ATP relative to untreated control.
ATP levels in FRDA lymphocytes were measured using firefly luciferase. The cells were grown on glucose-free media supplemented with galactose for 24 h prior to the addition of the test compounds. Since cells grown in galactose rely mostly on oxidative phosphorylation (OX-PHOS) to produce their ATP, they become more sensitive to mitochondrial respiratory chain inhibitors than cells grown in glucose medium.
Measurement of Cellular ATP Concentration
Total ATP levels in FRDA lymphocytes with or without partially blocking complex I activity with rotenone (5 nM) were measured using firefly luciferase as a means to measure ATP level. The cells were grown on glucose-free media supplemented with galactose. Since cells grown in galactose rely mostly on oxidative phosphorylation (OXPHOS) to produce their ATP, they become more sensitive to mitochondria respiratory chain inhibitors than cells grown in glucose medium. Briefly, lymphocytes (2×10^5 cell/mL) were plated (1 mL) in 24-well plates, treated with the test compounds, and then incubated at 37° C. for 48 h in a humidified atmosphere containing 5% CO2 in air. FRDA lymphocytes with partial inhibition of complex I, cells were preincubated with test compounds for overnight before rotenone (5 nM) treatment for 24 h. Cells in each well were mixed and transferred (100 μL) to 96-well microtiter black-walled cell culture plates (Costar, Corning, N.Y.). The total intracellular ATP level was measured in a luminator (Clarity™ luminescence microplate reader) using an ATP Bioluminescence Assay Kit (ViaLight®-Plus ATP monitoring reagent kit, Lonza) following the manufacturer's protocol. The total ATP level was expressed as a percentage of untreated control. Data are reported as the mean of at least three independent experiments.

Structure (SMILES)	preservation of mitochondrial membrane potential (Δψm) [1]	cellular ATP levels (FRDA lymphocytes)	concentration up to which ATP levels are maintained (FRDA lymphocytes)
CCCCCCCCCCN(CCCCCCCCCC)c1ccc2nc3ccc(=O)cc-3sc2c1 [Compound 2, 7-(N,N-Didecylamino)-3H-phenothiazin-3-one]	more effective in preserving mitochondrial membrane potential than the parent compound MV	–	–
CCCCCCCCCCCCCCCN(CCCCCCCCCCCCCCC)c1ccc2nc3ccc(=O)cc-3sc2c1 [Compound 3, 7-(N,N-Dipentadecylamino)-3H-phenothiazin-3-one]	more effective in preserving mitochondrial membrane potential than the parent compound MV	beyond that they reduce ATP levels significantly	up to 2.5 M
CCCCCCCCCCCCCCCN(C)c1ccc2nc3ccc(=O)cc-3sc2c1 [Compound 4, 7-(N-Methyl-N-pentadecylamino)-3H-phenothiazin-3-one]	more effective in preserving mitochondrial membrane potential than the parent compound MV	beyond that they reduce ATP levels significantly	up to 2.5 M
CCCCCCCCCCCCCCCN(CCCC)c1ccc2nc3ccc(=O)cc-3sc2c1 [Compound 5, 7-(N-Butyl-N-pentadecylamino)-3H-phenothiazin-3-one]	more effective in preserving mitochondrial membrane potential than the parent compound MV	beyond that they reduce ATP levels significantly	up to 2.5 M
